Laboratory results as given in patent publication US20220265727A1.
These are yes or no findings as the source states them, for the method shown. Some binding calls cover weakened binding; strength is not graded here.

Amino acid sequences for entries named in this document (tags omitted). Residues count along the entry.
UniProt P05067, residues 672-713: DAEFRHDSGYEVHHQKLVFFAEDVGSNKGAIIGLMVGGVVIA

Molecular target: amyloid beta in brain sections of a human Alzheimer's disease case (human) (UniProt P05067)
Experiment: immunohistochemistry on human Alzheimer's disease brain sections with supernatant of transduced myoblasts

B1: myoblast-produced anti-amyloid beta IgG (gantenerumab variable regions in a human IgG1 heavy chain and human kappa light chain backbone) (antibody, V domains shown)
VH: QVELVESGGGLVQPGGSLRLSCAASGFTFSSYAMSWVRQAPGKGLEWVSAINASGTRTYYADSVKGRFTISRDNSKNTLYLQMNSLRAEDTAVYYCARGKGNTHKPYGYVRYFDVWGQGTLVTVSS
VL: DIVLTQSPATLSLSPGERATLSCRASQSVSSSYLAWYQQKPGQAPRLLIYGASSRATGVPARFSGSGSGTDFTLTISSLEPEDFATYYCLQIYNMPITFGQGTKVEIKR
binding: binds
